Test results: the supplement of paper PMC10849652
Some of the results follow.

Amino acid sequences for entries named in this document (tags omitted). A change or cut given only in a name is not applied to a line headed by its entry.
UniProt P28749: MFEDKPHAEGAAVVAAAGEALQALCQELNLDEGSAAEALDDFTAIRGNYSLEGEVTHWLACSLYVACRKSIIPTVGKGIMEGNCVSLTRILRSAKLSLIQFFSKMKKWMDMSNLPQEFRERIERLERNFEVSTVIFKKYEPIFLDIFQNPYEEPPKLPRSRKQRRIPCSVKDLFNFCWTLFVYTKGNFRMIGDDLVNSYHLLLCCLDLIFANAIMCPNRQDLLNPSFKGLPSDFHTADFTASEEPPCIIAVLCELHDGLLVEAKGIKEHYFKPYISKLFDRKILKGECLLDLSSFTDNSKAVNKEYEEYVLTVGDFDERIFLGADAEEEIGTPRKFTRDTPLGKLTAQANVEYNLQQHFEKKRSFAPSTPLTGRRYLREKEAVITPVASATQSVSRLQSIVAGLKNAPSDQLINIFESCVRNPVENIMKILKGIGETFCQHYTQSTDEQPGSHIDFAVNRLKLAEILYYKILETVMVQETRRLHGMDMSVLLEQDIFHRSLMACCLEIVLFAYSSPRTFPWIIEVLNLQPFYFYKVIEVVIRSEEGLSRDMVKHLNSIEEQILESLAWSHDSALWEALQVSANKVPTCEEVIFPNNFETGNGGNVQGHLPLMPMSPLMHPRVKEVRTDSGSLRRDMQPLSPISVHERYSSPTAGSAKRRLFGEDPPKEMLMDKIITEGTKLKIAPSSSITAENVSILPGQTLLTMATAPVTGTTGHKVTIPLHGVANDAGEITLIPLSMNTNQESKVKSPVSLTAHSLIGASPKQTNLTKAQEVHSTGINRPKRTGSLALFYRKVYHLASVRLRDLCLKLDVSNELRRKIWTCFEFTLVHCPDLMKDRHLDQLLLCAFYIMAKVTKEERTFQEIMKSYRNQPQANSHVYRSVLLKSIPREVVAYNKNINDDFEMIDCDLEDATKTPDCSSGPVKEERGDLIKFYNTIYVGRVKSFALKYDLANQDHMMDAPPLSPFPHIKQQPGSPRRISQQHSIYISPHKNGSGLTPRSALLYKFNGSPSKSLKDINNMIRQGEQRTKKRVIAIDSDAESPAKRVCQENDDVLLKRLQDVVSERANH
UniProt Q86X27: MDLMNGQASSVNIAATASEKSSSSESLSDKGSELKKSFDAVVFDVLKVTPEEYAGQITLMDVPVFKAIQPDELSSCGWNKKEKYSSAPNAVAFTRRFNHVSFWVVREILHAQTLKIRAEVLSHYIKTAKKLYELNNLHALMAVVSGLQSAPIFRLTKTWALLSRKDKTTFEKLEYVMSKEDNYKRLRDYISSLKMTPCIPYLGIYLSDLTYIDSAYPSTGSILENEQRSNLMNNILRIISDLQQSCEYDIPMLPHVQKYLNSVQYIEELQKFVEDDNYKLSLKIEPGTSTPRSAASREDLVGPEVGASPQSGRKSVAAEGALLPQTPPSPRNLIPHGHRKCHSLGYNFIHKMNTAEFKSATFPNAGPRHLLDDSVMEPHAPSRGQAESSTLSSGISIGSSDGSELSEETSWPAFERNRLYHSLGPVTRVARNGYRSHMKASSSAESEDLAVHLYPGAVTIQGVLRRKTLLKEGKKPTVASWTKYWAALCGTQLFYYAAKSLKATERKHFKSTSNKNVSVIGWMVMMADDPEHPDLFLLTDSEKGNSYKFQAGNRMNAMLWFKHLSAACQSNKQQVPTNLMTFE
UniProt P98175: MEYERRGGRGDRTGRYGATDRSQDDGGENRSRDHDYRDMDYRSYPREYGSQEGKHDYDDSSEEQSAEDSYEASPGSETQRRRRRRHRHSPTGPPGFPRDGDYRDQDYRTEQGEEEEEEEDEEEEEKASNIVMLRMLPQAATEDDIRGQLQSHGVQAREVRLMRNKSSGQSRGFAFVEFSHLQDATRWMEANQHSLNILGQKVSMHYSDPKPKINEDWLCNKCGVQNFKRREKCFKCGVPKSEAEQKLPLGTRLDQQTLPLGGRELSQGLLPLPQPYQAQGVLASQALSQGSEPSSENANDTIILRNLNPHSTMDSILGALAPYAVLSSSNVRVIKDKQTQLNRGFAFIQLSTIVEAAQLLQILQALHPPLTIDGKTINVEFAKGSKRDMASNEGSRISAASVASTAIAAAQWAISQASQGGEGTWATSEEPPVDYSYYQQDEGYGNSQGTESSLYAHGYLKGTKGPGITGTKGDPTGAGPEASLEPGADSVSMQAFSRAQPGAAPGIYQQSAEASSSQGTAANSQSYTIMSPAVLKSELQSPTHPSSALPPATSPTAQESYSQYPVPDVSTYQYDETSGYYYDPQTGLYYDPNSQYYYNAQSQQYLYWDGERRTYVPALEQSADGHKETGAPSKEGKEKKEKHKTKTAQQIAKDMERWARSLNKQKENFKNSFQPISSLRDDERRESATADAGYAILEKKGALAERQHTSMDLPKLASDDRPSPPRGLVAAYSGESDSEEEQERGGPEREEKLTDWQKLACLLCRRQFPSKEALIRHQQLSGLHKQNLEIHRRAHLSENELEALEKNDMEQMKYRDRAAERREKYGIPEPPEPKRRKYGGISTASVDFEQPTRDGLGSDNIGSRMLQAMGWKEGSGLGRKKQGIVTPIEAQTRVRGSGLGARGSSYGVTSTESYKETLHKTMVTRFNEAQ
UniProt P61019: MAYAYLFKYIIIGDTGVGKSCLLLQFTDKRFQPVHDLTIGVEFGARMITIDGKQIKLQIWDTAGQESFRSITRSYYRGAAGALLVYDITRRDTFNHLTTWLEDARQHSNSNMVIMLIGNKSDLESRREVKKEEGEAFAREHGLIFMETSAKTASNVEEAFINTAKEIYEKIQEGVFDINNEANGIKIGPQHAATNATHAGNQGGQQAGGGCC
UniProt Q86WH2: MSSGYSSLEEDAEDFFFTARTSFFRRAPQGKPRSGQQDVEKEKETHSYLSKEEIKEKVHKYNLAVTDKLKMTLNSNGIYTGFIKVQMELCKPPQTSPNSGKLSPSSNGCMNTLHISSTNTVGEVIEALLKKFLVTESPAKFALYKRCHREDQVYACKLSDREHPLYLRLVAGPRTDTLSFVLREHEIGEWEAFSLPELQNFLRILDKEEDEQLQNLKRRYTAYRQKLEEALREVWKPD
UniProt Q7Z6E9: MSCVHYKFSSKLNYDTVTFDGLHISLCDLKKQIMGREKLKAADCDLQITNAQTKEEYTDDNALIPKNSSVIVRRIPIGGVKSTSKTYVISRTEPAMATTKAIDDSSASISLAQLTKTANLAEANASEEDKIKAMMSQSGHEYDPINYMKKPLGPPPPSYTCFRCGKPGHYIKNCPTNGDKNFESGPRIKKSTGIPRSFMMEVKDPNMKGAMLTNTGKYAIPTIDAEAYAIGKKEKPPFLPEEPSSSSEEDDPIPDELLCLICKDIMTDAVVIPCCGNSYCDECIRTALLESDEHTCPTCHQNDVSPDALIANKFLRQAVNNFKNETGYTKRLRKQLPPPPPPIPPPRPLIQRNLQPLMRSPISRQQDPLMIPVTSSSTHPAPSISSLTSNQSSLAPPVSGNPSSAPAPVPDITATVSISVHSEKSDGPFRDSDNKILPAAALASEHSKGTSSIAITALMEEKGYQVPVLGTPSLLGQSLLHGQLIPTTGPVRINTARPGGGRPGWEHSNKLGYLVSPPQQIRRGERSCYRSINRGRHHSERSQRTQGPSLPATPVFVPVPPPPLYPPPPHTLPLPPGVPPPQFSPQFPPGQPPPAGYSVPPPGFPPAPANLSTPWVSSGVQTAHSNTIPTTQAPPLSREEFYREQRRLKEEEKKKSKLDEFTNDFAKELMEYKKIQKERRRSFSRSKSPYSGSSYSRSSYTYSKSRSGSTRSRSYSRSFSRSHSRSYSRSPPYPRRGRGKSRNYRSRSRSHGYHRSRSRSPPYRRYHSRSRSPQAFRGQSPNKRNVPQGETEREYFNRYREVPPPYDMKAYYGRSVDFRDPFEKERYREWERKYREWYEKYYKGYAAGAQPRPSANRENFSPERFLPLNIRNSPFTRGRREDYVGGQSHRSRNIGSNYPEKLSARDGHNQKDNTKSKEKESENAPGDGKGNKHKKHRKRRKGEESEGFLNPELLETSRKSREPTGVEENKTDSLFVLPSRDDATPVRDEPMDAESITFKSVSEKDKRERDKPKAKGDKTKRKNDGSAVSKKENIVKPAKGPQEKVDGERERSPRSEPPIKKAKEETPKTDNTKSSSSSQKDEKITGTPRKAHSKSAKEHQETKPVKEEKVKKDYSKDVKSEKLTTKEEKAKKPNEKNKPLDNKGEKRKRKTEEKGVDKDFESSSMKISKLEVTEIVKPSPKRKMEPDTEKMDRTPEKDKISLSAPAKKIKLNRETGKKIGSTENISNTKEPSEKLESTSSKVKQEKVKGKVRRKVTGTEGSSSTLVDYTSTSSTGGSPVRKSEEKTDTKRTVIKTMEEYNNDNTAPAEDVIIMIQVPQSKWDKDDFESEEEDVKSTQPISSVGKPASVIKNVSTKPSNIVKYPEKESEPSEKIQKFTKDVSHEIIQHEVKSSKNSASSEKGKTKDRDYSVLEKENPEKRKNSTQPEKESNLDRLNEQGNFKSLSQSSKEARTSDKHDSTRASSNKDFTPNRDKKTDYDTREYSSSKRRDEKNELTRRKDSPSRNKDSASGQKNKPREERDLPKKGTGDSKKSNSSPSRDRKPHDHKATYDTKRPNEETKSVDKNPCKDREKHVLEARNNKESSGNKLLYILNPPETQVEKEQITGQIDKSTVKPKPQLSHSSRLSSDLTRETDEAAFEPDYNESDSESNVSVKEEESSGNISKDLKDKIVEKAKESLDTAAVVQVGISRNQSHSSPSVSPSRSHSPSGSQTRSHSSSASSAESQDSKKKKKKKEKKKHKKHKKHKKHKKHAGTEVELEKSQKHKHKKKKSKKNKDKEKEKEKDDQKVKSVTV
UniProt Q15283: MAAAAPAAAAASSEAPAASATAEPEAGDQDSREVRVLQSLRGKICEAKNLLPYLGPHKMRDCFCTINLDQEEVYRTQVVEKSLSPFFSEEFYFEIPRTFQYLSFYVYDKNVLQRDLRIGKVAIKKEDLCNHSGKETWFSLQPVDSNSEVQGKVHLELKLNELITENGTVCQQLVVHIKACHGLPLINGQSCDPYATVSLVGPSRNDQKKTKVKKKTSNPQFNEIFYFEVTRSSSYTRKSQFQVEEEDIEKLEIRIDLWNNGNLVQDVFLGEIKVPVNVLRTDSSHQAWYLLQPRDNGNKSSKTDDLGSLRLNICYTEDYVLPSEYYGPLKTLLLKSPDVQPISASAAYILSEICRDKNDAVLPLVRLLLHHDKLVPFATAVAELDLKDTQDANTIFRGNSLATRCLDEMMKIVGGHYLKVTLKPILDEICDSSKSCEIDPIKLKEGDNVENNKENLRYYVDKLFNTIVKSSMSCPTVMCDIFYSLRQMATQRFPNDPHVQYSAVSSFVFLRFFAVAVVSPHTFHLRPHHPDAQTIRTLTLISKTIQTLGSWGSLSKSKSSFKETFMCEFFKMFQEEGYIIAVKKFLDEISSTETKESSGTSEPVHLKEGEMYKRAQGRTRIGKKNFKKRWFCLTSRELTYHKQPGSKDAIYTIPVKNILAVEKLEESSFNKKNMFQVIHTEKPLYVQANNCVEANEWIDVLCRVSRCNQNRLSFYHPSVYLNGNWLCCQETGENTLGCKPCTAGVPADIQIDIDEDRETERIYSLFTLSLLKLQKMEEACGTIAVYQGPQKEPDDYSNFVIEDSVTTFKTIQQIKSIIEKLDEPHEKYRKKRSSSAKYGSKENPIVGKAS
UniProt Q6VN20, whole entry, looked up: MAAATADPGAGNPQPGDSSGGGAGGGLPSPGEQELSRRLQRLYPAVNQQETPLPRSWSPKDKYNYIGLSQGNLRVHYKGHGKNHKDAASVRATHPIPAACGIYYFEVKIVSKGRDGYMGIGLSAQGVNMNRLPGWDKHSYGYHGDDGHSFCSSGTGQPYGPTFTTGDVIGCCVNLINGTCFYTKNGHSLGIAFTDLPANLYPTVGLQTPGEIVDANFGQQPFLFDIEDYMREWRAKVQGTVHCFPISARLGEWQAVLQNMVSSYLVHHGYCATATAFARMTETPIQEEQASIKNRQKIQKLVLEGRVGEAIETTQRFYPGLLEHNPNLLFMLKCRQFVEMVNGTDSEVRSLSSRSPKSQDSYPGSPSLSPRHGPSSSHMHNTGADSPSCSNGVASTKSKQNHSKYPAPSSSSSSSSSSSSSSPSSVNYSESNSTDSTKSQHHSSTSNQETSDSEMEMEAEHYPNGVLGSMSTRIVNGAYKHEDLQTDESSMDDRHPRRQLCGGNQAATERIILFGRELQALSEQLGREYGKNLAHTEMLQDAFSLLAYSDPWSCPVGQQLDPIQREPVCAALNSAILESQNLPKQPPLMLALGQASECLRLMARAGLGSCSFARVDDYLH

Columns and labels:
Assay in all cases: log2 fold change, soluble protein after heating vs DMSO (PISA); higher = thermal stabilisation; K562 cells, 10 uM, 30 min; active = over 0.2 and 3.5 SD of the protein, either way, in both replicates (recomputed)
bafetinib = compound: Cc1ccc(NC(=O)c2ccc(CN3CC[C@H](N(C)C)C3)c(C(F)(F)F)c2)cc1Nc1nccc(-c2cncnc2)n1 [bafetinib]
In short: (§1)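 K562 cells (2×10^6 cells/mL) were treated with 10 μM compound for 30 min, and aliquots were heated for 3 min over 48°C-58°C. Pooled aliquots were extracted in PBS with 0.5% NP-40 at 4°C, and the supernatant after 21,000xg for 90 min was measured by TMTpro 16plex LC-MS/MS with channel sums equalised. Reported thermal stability, relative to control samples and from duplicates, is a log2 fold change.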

[1] = compound: Cc1cccc(CC(=O)N2CCc3c2ccc(-c2cn(C)c4ncnc(N)c24)c3F)n1
In short: as §1

dasatinib = compound: Cc1nc(Nc2ncc(C(=O)Nc3c(C)cccc3Cl)s2)cc(N2CCN(CCO)CC2)n1 [dasatinib]
In short: as §1

[2] = compound: Cn1cc(-c2ccc3c(c2)CCN3C(=O)Cc2cccc(C(F)(F)F)c2)c2c(N)ncnc21
In short: as §1

[3] = compound: Cn1cc(-c2ccc3nnc(C(F)(F)c4ccc5ncccc5c4)n3n2)cn1
In short: as §1

tipifarnib = compound: Cn1cncc1[C@@](N)(c1ccc(Cl)cc1)c1ccc2c(c1)c(-c1cccc(Cl)c1)cc(=O)n2C [tipifarnib]
In short: as §1

mubritinib = compound: FC(F)(F)c1ccc(/C=C/c2nc(COc3ccc(CCCCn4ccnn4)cc3)co2)cc1 [mubritinib]
In short: as §1

[4] = compound: NC(=O)Nc1cc(-c2cccc(F)c2)sc1C(=O)N[C@H]1CCCNC1
In short: as §1

[5] = compound: NC(=O)c1cnc(N[C@@H]2CCCC[C@@H]2N)nc1Nc1cccc(-n2nccn2)c1
In short: as §1

[6] = compound: NC1(c2ccc(-c3nc4ccn5c(=O)[nH]nc5c4cc3-c3ccccc3)cc2)CCC1
In short: as §1

[7] = compound: NCC(=O)Nc1ccc(-n2nc(C(F)(F)F)cc2-c2ccc3c(ccc4ccccc43)c2)cc1
In short: as §1

entinostat = compound: Nc1ccccc1NC(=O)c1ccc(CNC(=O)OCc2cccnc2)cc1 [entinostat]
In short: as §1

vorinostat = compound: O=C(CCCCCCC(=O)Nc1ccccc1)NO [vorinostat]
In short: as §1

citarinostat = compound: O=C(CCCCCCNC(=O)c1cnc(N(c2ccccc2)c2ccccc2Cl)nc1)NO [citarinostat]
In short: as §1

silmitasertib = compound: O=C(O)c1ccc2c(c1)nc(Nc1cccc(Cl)c1)c1ccncc12 [silmitasertib]
In short: as §1

[8] = compound: O=C1NC(=O)C(c2cnc3ccccn23)=C1c1cn2c3c(cc(F)cc13)CN(C(=O)N1CCCCC1)CC2
In short: as §1

[9] = compound: c1cc(OCCN2CCCCC2)cc(-c2n[nH]c3ccc(-c4nnc[nH]4)cc23)c1
In short: as §1

nilotinib = compound: Cc1cn(-c2cc(NC(=O)c3ccc(C)c(Nc4nccc(-c5cccnc5)n4)c3)cc(C(F)(F)F)c2)cn1 [nilotinib]
In short: as §1

[10] = compound: Cc1nc(Nc2n[nH]c3c2CN(C(=O)N[C@H](CN(C)C)c2ccccc2)C3(C)C)c2sccc2n1
In short: as §1

[11] = compound: Cc1ncc(-c2ccnc(Nc3ccc(S(C)(=O)=O)cc3)n2)n1C(C)C
In short: as §1

Measured: log2 fold change

RACK1 (UniProt D6RF23)
inactive: bafetinib 0.05 | [1] -0.054 | dasatinib 0.122 | [2] -0.032 | [3] -0.01 | tipifarnib 0.113 | mubritinib 0.091 | [4] -0.282 | [5] -0.11 | [6] -0.207 | [7] -0.192 | entinostat 0.002 | vorinostat 0.006 | citarinostat -0.12 | silmitasertib 0.138 | [8] -0.032 | [9] -0.353

RBL1 (UniProt P28749)
inactive: bafetinib -0.096 | [1] -0.393 | nilotinib 0.121 | [10] -0.009 | [11] 0.016 | vorinostat -0.09 | citarinostat 0.263 | [9] 0.313

RALGPS2 (UniProt Q86X27)
inactive: bafetinib -0.072 | [1] -0.001 | dasatinib -0.011 | [2] 0.043 | mubritinib -0.198 | [5] 0.258 | [6] -0.08 | [7] 0.175 | vorinostat 0.074 | citarinostat 0.219 | silmitasertib 0.089 | [8] 0.34 | [9] -0.153

RAB3IL1 (UniProt E9PK89)
inactive: bafetinib -0.053 | [1] 0.01 | nilotinib -0.007 | [10] -0.189 | [11] -0.101 | [2] 0.258 | [3] 0.056 | tipifarnib -0.035 | [4] 0.062 | [5] 0.11 | [7] 0.018 | entinostat -0.023 | vorinostat 0.112 | citarinostat 0.049 | [8] -0.234 | [9] 0.016

RAPGEF2, A0A2R8YGD3
inactive: bafetinib -0.072 | [1] -0.039 | dasatinib 0.097 | [2] 0.078 | [3] -0.083 | tipifarnib 0.048 | mubritinib -0.009 | [4] -0.203 | [5] -0.149 | [6] -0.079 | [7] -0.243 | entinostat 0.022 | vorinostat -0.05 | silmitasertib 0.018 | [8] 0.046

RBM10 isoform 5 (UniProt P98175)
inactive: bafetinib 0.212 | [1] -0.204 | nilotinib -0.019 | [10] 0.012 | dasatinib 0.032 | [11] -0.04 | [2] -0.229 | [3] -0.065 | tipifarnib 0.056 | mubritinib -0.015 | [4] 0.106 | [5] 0.047 | [6] 0.156 | [7] 0.066 | entinostat -0.039 | vorinostat 0.02 | citarinostat 0.035 | silmitasertib -0.023 | [8] 0.044 | [9] -0.107

RAB2A (UniProt P61019)
inactive: bafetinib 0.007 | [1] -0.015 | nilotinib -0.011 | [10] 0.017 | dasatinib 0.026 | [11] -0.021 | [2] -0.005 | [3] 0.037 | tipifarnib 0.044 | mubritinib 0.02 | [4] -0.032 | [5] -0.03 | [6] -0.045 | [7] -0.014 | entinostat 0.011 | vorinostat -0.018 | citarinostat -0.02 | silmitasertib 0.002 | [8] -0.007 | [9] 0.035

RASSF3 (UniProt Q86WH2)
inactive: bafetinib 0.045 | [1] -0.049 | nilotinib 0.006 | [10] 0.107 | [11] -0.081 | [2] 0.008 | [3] -0.067 | tipifarnib 0.075 | mubritinib 0 | [5] 0.01 | [6] 0.291 | [7] -0.172 | vorinostat -0.141 | citarinostat 0.1 | silmitasertib 0.127 | [9] -0.035

RBBP6 (UniProt Q7Z6E9)
inactive: bafetinib -0.018 | [1] -0.004 | nilotinib 0 | [10] -0.031 | [11] -0.003 | [2] 0.003 | [3] -0.01 | tipifarnib -0.058 | mubritinib -0.171 | [4] 0.028 | [5] -0.107 | [6] 0.089 | [7] -0.017 | entinostat -0.011 | vorinostat 0.081 | citarinostat 0.099 | silmitasertib 0.207 | [8] 0.112 | [9] -0.013

Quoted at random: 2 records from the list.
RASSF3 (UniProt Q86WH2)
inactive: bafetinib 0.045 | [1] -0.049 | nilotinib 0.006 | [10] 0.107 | [11] -0.081 | [2] 0.008 | [3] -0.067 | tipifarnib 0.075 | mubritinib 0 | [5] 0.01 | [6] 0.291 | [7] -0.172 | vorinostat -0.141 | citarinostat 0.1 | silmitasertib 0.127 | [9] -0.035

RBL1 (UniProt P28749)
inactive: bafetinib -0.096 | [1] -0.393 | nilotinib 0.121 | [10] -0.009 | [11] 0.016 | vorinostat -0.09 | citarinostat 0.263 | [9] 0.313

Remaining list, next part

RACK1 (UniProt D6RHH4)
inactive: bafetinib -0.496 | [1] -0.627 | nilotinib -0.144 | [10] 0.141 | dasatinib 0.269 | [11] 0.018 | [2] -0.037 | tipifarnib 0.2 | mubritinib -0.103 | [4] -0.43 | [5] -0.192 | [6] 0.064 | [7] -0.264 | entinostat 0.172 | vorinostat -0.052 | citarinostat -0.164 | silmitasertib 0.02 | [8] -0.509 | [9] -0.123

RASA2 (UniProt Q15283)
inactive: bafetinib 0.244 | [1] 0.059 | dasatinib -0.114 | [2] -0.089 | [3] 0.247 | tipifarnib 0.337 | mubritinib 0.035 | [4] 0.105 | [5] -0.495 | [6] -0.105 | [7] -0.24 | entinostat -0.094 | vorinostat 0.017 | citarinostat -0.317 | silmitasertib 0.064 | [8] 0.151 | [9] -0.047

RANBP10 (UniProt Q6VN20)
inactive: bafetinib 0.024 | [1] -0.062 | nilotinib 0.019 | [10] 0.021 | [11] 0.042 | [2] -0.109 | [3] 0.012 | tipifarnib 0.027 | mubritinib 0.1 | [4] 0.098 | [5] 0.002 | [6] -0.055 | [7] -0.1 | entinostat -0.021 | vorinostat 0.021 | citarinostat -0.176 | silmitasertib 0.068 | [8] 0.051 | [9] -0.054

RAD50, A0A494C0Y7
inactive: bafetinib -0.022 | [1] -0.249 | dasatinib 0.028 | [2] -0.012 | [3] 0.016 | tipifarnib 0.058 | mubritinib 0.167 | [4] -0.032 | [5] -0.159 | [6] -0.28 | [7] -0.175 | entinostat -0.103 | vorinostat -0.086 | citarinostat 0.095 | silmitasertib 0.103 | [9] -0.279
